According to paper PMC8834682:
These are yes or no findings as the source states them, for the method shown. In cells and extracts the contact can be indirect. Some entries that bind do so weakly or less than the wild type.

Assays:
[1] = molecular target: T1, mRuby3-linked E47:WT acceptor (transcription factor 3 isoform E47, wild type) (UniProt P15923); test: FRET or BRET; TCSPC-based FLIM-FRET in living HEK293T cells; N-terminal mNeonGreen-linked ATOH7 donor, C-terminal mRuby3-linked E47 acceptor; 36.5 °C, 5.0% CO2; MG-132 for 4 h before imaging; nuclear and extranuclear regions of interest
T1 sequence: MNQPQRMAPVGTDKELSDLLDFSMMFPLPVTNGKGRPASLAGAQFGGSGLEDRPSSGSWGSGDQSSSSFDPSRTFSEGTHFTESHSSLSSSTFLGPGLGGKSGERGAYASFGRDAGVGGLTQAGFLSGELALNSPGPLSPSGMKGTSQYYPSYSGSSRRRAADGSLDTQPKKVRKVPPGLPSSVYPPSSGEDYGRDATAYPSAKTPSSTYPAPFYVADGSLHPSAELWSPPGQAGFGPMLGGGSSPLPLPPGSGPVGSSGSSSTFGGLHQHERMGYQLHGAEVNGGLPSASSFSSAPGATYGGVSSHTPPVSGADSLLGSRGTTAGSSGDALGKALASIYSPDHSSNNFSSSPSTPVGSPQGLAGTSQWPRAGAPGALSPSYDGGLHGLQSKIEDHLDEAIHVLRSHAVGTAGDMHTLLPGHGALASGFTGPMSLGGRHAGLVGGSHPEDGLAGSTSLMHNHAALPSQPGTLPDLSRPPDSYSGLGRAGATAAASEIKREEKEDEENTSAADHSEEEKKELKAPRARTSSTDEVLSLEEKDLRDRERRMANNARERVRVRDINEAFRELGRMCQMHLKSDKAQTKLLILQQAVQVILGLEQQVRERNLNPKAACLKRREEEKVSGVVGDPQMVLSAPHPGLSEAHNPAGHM

[2] = molecular target: T2, mRuby3-linked E47:ΔNLS acceptor (E47 p.(Arg158_Arg174del)) (UniProt P15923); test: as above
T2 sequence: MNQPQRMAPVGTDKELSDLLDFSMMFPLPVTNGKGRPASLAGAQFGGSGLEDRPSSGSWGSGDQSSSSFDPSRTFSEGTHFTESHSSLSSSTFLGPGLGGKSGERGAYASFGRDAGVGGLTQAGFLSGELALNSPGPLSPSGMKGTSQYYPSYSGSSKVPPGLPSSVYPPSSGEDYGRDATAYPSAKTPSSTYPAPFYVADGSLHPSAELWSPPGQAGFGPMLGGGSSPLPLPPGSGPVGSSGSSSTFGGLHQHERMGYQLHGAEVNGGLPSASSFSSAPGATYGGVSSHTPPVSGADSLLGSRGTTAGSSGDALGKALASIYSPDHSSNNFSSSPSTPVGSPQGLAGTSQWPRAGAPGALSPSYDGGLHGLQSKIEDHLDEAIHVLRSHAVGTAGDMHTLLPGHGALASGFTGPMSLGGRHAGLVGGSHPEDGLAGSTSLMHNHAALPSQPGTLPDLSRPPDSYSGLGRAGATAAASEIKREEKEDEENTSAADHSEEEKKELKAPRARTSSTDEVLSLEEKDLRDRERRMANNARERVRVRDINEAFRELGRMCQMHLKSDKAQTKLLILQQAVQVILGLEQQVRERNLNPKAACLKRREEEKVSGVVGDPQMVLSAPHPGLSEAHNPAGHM

Binder	binding [1]	binding [2]
mNeonGreen-linked ATOH7:A59T donor (protein, UniProt Q8N100 1-152) MKSCKPSGPPAGARVAPPCAGGTECAGTCAGAGRLESAARRRLAANARERRRMQGLNTTFDRLRRVVPQWGQDKKLSKYETLQMALSYIMALTRILAEAERFGSERDWVGLHCEHFGRDHYLPFPGAKLPGESELYSQRLFGFQPEPFQMAT	binds	
mNeonGreen-linked ATOH7:R41_R48del donor (protein, UniProt Q8N100) MKSCKPSGPPAGARVAPPCAGGTECAGTCAGAGRLESAARERRRMQGLNTAFDRLRRVVPQWGQDKKLSKYETLQMALSYIMALTRILAEAERFGSERDWVGLHCEHFGRDHYLPFPGAKLPGESELYSQRLFGFQPEPFQMAT	binds	binds
